For at least one compound, name, drawing or mass did not settle the structure.
Test system: patients known to give positive skin test to penicillin derivatives
Experiment: Intradermal skin test with BPO-amines and other penicillin allergy skin test materials (Table II)
Format: in vivo, human
Conditions: intradermal 0.01 ml, read in 15 minutes, BPL 1 × 10^-6 M, other materials 1 × 10^-2 M
Excerpt: Benzylpenicillin (PG) was 1.0×10^-2 M in 0.11M saline.
Sodium benzylpenicilloate plus sodium benzylpenilloate (P/P) was 1.0×10^-2 M of each dissolved in phosphate buffered saline at pH 7.5.
Benzylpenicilloyl-amine (BPO-amine) was 1.0×10^-2 M concentration phosphate buffered saline at pH 7.5.
Benzylpenicilloyl-n-propyl amine and benzylpenicilloyl-n-ethyl amine (as α-diastereoisomers) were each dissolved to 1.0×10^-2 M concentration in phosphate buffered saline at pH 7.5.
They were healthy men and women ranging in age from 23 to 56 years. Ten people negative to the skin test materials served as controls.
Using 1.0 ml tuberculin syringes with #26 needles and intradermal bevels, 0.01 ml volumes of the test materials were injected intradermally into the anterior-lateral aspects of the arms. Skin tests were read in 15 minutes. A negative reaction is the poorly outlined bleb of fluid --1-3 mm in diameter without surrounding erythema. Positive tests were sharply outlined wheals of 4-20 mm diameter with surrounding erythema. The positive tests were graded as 1+,2+,3+ and 4+ on the basis of wheal diameter. 1+=4-6 mm; 2+=7-9 mm; 3+=10-12 mm; and 4+=more than 13 mm with pseudopods. […] Skin tests were done in duplicate.

CCCNC(=O)[C@@H](NC(=O)Cc1ccccc1)[C@@H]1N[C@@H](C(=O)O)C(C)(C)S1 [BPO-propyl amine, Benzylpenicilloyl-n-propyl amine]
Intensity of reactions in patients: patient gamma (patient eight): 1 - 2+
Intensity of reactions in patients: patient eta (patient five): 2 - 3+
Intensity of reactions in patients: patient alpha (patient four): 2 - 3+
Intensity of reactions in patients: theta (patient two): 3 - 4+
